For part of these data: Tags and fusion partners may be left off the protein sequences shown. For part of these data: The exact form of at least one protein or probe is not confirmed.
Assays:
Test in all cases: enzyme reaction in vitro
BglII = target: T1, BglII (UniProt Q45488); details: electrochemical turn-on; PURExpress, 37 C; little crosstalk; protein translated in vitro; label: 3' methylene blue on reporter; only the site is given
T1 sequence (looked up, limits assumed): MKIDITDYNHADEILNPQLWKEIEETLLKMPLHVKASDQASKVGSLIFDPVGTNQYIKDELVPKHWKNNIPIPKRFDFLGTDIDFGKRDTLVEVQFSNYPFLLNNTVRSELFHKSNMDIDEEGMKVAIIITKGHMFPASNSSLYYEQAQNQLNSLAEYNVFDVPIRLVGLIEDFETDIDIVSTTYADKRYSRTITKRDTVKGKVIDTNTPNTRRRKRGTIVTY

Amino acid sequences for entries named in this document (tags omitted). A change or cut given only in a name is not applied to a line headed by its entry.
UniProt P04390: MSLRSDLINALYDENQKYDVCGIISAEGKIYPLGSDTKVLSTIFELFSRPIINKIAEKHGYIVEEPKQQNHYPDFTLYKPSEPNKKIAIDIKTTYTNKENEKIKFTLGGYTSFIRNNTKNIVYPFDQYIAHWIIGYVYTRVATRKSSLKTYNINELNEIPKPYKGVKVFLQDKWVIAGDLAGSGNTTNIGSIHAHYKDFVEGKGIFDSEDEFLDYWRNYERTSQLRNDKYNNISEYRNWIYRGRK

NcoI = details: electrochemical turn-on; PURExpress, 37 C; little crosstalk; protein translated in vitro; label: 3' methylene blue on reporter; only the site is given
AciI = details: electrochemical turn-on; PURExpress, 37 C; orthogonal to other nine duplexes (FIG. 3G); protein translated in vitro; label: 3' methylene blue on reporter; only the site is given
ClaI = details: electrochemical turn-on; PURExpress, 37 C; little crosstalk; protein translated in vitro; label: 3' methylene blue on reporter; only the site is given
BanII = details: electrochemical turn-on; PURExpress, 37 C; little crosstalk; protein translated in vitro; label: 5' methylene blue on reporter; only the site is given
BstEII = target: T2, BstEII (UniProt E5Q8U2); details: electrochemical turn-on; PURExpress, 37 C; little crosstalk; protein translated in vitro; label: 3' methylene blue on reporter; only the site is given
T2 sequence (looked up, limits assumed): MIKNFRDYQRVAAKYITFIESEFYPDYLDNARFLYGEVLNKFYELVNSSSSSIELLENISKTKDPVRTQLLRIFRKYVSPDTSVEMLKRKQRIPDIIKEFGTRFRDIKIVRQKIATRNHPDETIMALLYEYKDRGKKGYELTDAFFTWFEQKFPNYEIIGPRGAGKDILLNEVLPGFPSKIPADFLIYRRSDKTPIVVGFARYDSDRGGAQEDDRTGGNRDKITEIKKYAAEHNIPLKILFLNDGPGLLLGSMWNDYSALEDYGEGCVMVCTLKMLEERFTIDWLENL

EcoRV = EcoRV (UniProt P04390); details: electrochemical turn-on; PURExpress, 37 C; little crosstalk; protein translated in vitro; label: 3' methylene blue on reporter; only the site is given
HincII = target: T3, HincII (UniProt P17743); details: electrochemical turn-on; PURExpress, 37 C; little crosstalk; protein translated in vitro; label: 3' methylene blue on reporter; only the site is given
T3 sequence (looked up, limits assumed): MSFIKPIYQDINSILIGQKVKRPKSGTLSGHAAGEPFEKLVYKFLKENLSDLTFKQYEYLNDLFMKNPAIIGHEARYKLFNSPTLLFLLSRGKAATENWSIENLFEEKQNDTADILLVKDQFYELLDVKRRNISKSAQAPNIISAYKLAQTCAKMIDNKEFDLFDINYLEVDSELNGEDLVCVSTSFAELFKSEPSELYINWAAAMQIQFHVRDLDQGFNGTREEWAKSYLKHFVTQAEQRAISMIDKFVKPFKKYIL

BsaAI = details: electrochemical turn-on; PURExpress, 37 C; little crosstalk; protein translated in vitro; label: 3' methylene blue on reporter; only the site is given

In the case of “ACTGGACGTGCTTAGATCTAGTTCTCAAGC (double strand) [BglII reporter/inhibitor duplex]”, the “activity on this sequence” value (BglII) is reported as “active”.
“CCATATGCTGCACCATGGTCACGTGTTCG (double strand) [NcoI reporter/inhibitor duplex]” was tested, and the “activity on this sequence” value (NcoI) was “active”.
“CGGACGTGAACCGCGGTGTACTGCTAG / CTAGCAGAACACCGCGGTTCACGTCCG [AciI reporter/inhibitor duplex]” was tested, and the “activity on this sequence” value (AciI) was “active”.
“CGGTGCTGAGTCATCGATTGTTCAGTTGC / GCAACTGTACAATCGATGACTCAGCACCG [ClaI reporter/inhibitor duplex]” was tested, and the “activity on this sequence” value (ClaI) was “active”.
For “GCATACTCGAGGAGCCCCACGTTCTCAGT (double strand) [BanII reporter/inhibitor duplex]”, the “activity on this sequence” value (BanII) was “active”.
“GCGAGGTCATCGGGTCACCATGACGATGTG / CACATCGACATGGTGACCCGATGACCTCGC [BstEII reporter/inhibitor duplex]” was tested, and the “activity on this sequence” value (BstEII) was “active”.
“GTCTCCTCGACGGATATCAAATCCAGGCA / TGCCTGGATTAGATATCCGTCGAGGAGAC [EcoRV reporter/inhibitor duplex]” was tested, and the “activity on this sequence” value (EcoRV) was “active”.
“TCGCTCAGGATCGTCAACAGTACCTCGAC / GTCGAGGTAATGTTGACGATCCTGAGCGA [HincII reporter/inhibitor duplex]” was tested, and the “activity on this sequence” value (HincII) was “active”.
With “TGCACGTGAGCTCACGTATGATCCCTACG / CGTAGGGATAATACGTGAGCTCACGTGCA [BsaAI reporter/inhibitor duplex]” the “activity on this sequence” value (BsaAI) was “active”.
